Measured values as given in the supplement of paper PMC11732987, “Enantioselective OTUD7B fragment discovery through chemoproteomics screening and high-throughput optimisation” (Communications Chemistry, 2025).
Some of the results follow. The data scatter; read single values as rough.

Sequences of proteins named here, by UniProt entry; tags and fusion partners are left off. A change or cut given only in a name is not applied to a line headed by its entry. Residues count along the entry.
UniProt P42336, whole entry, looked up: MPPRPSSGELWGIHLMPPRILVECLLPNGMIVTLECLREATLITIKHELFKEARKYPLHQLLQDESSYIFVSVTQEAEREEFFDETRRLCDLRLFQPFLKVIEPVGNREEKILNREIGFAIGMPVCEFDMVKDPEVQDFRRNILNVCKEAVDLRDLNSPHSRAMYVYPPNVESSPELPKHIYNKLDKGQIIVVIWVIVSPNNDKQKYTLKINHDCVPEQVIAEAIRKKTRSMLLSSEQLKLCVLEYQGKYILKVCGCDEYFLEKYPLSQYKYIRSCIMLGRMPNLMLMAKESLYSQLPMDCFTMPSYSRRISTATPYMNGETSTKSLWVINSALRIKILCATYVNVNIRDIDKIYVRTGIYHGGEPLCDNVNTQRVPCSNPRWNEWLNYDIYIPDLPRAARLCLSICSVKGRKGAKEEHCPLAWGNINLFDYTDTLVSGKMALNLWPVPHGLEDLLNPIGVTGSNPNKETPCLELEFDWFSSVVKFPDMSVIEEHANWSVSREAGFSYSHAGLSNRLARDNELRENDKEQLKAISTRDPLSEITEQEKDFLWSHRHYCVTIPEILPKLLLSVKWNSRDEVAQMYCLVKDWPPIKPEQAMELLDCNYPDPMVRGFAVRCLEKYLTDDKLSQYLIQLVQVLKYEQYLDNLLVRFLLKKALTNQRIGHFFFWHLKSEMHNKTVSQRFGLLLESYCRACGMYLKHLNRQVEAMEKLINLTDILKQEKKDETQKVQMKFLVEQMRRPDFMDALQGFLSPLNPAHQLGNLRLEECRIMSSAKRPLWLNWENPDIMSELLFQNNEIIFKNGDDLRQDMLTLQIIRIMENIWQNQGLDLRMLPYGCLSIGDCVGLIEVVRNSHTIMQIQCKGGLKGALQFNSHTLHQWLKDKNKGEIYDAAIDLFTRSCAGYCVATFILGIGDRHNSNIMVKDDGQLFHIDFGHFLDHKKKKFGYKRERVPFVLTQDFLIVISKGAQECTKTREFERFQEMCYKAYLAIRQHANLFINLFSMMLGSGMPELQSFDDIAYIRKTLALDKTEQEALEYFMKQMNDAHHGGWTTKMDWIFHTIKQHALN
UniProt Q8IWE5: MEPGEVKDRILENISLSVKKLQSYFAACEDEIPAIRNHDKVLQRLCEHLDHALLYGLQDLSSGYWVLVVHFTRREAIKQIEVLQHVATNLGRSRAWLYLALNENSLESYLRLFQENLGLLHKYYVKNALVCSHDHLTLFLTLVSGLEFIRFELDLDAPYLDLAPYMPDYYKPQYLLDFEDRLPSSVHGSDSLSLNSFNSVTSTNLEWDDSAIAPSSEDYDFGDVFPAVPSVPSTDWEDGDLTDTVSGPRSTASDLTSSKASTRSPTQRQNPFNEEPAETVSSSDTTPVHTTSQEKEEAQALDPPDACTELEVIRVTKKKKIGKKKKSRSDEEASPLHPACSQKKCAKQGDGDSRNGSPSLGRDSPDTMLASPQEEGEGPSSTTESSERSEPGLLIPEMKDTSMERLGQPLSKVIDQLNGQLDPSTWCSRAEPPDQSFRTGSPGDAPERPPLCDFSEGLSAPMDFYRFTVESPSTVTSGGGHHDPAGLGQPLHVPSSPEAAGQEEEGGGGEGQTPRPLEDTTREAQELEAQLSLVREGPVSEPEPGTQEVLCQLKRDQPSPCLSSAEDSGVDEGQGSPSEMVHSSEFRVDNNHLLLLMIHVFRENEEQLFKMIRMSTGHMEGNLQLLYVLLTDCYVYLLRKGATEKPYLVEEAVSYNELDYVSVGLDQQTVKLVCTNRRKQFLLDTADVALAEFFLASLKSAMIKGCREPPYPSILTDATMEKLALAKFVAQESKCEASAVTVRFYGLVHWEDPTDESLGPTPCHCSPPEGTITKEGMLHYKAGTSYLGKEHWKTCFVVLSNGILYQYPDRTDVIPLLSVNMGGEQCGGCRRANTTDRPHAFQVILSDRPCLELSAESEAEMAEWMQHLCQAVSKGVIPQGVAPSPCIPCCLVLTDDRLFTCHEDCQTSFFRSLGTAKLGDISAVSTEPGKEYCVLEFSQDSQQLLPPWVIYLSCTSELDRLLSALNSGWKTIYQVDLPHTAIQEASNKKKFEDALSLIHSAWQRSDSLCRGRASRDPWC
UniProt Q9Y263: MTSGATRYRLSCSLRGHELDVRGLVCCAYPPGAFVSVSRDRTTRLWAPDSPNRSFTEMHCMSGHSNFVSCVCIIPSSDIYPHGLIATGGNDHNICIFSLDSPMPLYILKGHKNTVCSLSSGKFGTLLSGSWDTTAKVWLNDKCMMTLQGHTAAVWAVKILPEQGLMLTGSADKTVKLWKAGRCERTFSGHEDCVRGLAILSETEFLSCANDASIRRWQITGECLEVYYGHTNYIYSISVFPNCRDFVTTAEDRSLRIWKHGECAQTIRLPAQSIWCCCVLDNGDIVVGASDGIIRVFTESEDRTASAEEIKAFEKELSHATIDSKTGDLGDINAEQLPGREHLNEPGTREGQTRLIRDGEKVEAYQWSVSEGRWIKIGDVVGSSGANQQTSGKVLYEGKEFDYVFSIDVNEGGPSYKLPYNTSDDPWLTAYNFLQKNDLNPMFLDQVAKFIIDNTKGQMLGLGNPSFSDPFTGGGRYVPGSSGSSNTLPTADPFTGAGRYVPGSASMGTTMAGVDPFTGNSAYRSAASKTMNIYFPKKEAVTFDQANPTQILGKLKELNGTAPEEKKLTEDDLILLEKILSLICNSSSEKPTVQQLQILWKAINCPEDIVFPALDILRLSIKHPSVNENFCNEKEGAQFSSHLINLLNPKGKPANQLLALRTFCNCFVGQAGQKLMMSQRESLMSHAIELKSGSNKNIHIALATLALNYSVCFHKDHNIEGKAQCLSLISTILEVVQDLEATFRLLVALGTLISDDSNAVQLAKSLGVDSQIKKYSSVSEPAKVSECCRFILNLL
UniProt P19174: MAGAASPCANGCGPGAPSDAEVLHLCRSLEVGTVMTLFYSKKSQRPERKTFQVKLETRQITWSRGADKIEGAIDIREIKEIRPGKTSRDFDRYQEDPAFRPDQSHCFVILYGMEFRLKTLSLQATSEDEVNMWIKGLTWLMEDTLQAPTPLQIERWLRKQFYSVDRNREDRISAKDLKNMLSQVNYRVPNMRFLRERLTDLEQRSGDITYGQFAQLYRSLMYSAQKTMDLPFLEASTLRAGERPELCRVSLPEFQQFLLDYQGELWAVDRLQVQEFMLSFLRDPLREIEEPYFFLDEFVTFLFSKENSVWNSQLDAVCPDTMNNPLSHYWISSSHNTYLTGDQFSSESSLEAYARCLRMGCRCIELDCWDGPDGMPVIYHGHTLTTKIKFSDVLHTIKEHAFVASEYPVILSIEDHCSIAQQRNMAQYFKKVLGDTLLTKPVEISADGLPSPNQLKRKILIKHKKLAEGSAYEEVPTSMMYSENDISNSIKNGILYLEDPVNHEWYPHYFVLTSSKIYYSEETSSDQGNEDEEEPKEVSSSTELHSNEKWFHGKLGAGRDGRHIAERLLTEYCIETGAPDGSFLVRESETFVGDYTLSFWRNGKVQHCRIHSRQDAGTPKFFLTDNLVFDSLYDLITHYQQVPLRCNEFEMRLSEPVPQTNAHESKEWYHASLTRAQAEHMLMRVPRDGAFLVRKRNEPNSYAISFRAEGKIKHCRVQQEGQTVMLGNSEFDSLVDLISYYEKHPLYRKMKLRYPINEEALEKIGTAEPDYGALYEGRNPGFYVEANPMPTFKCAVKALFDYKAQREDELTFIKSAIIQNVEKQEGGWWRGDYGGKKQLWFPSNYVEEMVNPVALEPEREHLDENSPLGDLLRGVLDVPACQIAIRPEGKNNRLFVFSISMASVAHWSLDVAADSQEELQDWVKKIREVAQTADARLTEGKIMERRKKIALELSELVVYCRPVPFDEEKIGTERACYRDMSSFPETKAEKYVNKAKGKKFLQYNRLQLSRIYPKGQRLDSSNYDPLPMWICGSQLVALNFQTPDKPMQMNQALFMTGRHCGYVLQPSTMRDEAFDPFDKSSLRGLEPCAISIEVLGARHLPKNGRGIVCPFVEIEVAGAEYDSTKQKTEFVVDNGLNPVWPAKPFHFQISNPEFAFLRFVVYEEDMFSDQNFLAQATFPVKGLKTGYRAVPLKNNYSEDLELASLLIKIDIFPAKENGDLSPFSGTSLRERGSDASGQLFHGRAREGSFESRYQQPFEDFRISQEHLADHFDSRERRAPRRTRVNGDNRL
UniProt P16885: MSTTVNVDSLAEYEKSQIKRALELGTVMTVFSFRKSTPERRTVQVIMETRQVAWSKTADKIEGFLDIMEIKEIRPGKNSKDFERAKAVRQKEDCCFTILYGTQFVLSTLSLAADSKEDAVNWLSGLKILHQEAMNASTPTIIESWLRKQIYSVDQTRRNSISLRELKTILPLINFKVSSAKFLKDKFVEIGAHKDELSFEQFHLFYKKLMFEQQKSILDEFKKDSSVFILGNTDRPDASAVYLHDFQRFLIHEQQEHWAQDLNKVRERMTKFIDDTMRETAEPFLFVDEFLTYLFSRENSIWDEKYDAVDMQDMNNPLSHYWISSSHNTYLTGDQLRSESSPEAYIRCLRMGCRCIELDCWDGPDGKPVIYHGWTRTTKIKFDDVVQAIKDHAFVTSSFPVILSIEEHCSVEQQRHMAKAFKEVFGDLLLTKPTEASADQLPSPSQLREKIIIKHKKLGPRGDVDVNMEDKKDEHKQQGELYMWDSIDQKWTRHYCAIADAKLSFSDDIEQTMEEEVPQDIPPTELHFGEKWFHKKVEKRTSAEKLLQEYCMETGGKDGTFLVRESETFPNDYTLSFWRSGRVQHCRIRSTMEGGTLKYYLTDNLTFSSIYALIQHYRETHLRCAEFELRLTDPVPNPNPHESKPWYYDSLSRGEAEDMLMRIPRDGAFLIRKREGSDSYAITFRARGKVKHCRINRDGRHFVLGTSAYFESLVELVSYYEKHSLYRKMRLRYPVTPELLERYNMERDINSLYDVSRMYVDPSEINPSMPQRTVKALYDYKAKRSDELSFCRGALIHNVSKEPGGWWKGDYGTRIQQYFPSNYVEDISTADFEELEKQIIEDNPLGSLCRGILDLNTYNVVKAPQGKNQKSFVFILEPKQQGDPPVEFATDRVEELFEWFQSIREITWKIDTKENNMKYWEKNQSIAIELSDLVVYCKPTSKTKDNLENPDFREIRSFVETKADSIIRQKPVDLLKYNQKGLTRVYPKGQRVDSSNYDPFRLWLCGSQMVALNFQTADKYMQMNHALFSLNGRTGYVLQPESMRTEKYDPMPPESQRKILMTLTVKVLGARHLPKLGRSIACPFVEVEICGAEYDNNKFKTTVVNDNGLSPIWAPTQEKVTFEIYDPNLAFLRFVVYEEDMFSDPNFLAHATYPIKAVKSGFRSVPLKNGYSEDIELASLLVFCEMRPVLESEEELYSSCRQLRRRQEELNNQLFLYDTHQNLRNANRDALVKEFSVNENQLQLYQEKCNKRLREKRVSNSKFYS
UniProt O00469: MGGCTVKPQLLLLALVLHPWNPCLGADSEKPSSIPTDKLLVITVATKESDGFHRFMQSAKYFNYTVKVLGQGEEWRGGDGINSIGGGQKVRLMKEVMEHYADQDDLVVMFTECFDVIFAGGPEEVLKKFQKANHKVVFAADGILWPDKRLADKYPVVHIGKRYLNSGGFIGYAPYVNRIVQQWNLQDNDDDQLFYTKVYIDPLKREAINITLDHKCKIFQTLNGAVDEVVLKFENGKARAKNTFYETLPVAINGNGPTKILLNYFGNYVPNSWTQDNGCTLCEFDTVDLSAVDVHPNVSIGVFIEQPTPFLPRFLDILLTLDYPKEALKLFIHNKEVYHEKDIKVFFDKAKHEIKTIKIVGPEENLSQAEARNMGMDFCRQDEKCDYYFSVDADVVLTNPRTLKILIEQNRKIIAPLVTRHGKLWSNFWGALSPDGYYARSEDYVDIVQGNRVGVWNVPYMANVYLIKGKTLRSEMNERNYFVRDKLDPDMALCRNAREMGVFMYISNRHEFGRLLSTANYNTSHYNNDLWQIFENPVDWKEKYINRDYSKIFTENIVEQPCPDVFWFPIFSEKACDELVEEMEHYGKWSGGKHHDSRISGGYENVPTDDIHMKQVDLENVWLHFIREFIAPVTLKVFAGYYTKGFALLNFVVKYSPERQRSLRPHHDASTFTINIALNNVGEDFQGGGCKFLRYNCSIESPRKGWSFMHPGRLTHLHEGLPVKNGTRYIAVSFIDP
UniProt O75928, 444-464: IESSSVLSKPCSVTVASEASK
UniProt Q8IWS0: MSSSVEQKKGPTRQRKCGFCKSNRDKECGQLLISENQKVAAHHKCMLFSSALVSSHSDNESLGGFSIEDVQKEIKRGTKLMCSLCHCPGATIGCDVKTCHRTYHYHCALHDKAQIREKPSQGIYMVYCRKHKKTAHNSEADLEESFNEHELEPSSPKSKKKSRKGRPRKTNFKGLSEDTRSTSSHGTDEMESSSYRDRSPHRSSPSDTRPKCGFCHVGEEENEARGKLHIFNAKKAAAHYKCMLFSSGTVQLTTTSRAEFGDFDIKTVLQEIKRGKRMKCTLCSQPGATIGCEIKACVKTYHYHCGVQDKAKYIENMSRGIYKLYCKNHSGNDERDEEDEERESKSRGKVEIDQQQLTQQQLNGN

Columns and labels:
[1] = compound: ClCC(=O)N[C@@H]1CCCc2ccccc12; experiment: log2 mean competition ratio of IA-DTB cysteine labelling (DMSO/compound) (log2 ratio); higher = stronger cysteine engagement by compound; settings: treatment time: 4 h, cell line lysate: HEK293T
Description: (§1)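 IA-DTB competitive cysteine chemoproteomics in HEK293T RIPA lysate. Lysates were treated with compound 29 or 30 at 50 or 200 µM for 4 h, then IA-DTB (500 µM, 1 h), trypsin-digested, NeutrAvidin-enriched and analysed by diaPASEF. Competition ratio = intensity DMSO / intensity compound (n=4 treated, n=64 DMSO); binding: mean log2 CR ≥ 1 and p ≤ 0.05 plus QC filters. Target is the cysteine site.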

[2] = compound: ClCC(=O)N[C@H]1CCCc2ccccc12; experiment: as above; settings: treatment time: 4 h, cell line lysate: HEK293T
Description: as §1

Row | Target | log2 mean competition ratio ([1]; 50 µM) | log2 mean competition ratio ([1]; 200 µM) | log2 mean competition ratio ([2]; 50 µM) | log2 mean competition ratio ([2]; 200 µM)
1 | PIK3CA C242 (UniProt P42336) | 0.0632 | -0.257 | 0.0835 | -0.31
2 | POLM C222 | -0.171 | 0.105 | -0.252 | -0.154
3 | PLS3 C167 | 0.11 | 0.184 | 0.208 | 0.313
4 | PLEKHA7 C972 (UniProt Q6IQ23) | -0.195 | -0.0331 | -0.0951 | 0.0734
5 | PIK3CA C862 (UniProt P42336) | -0.262 | -0.0174 | -0.141 | -0.183
6 | PI4KA C1131 (UniProt P42356) | 0.194 | 0.147 | 0.551 | -0.345
7 | PKN3 C288 (UniProt Q6P5Z2) | 0.442 | -0.0971 | -0.205 | -0.113
8 | POLD3 C129 (UniProt Q15054) | 0.00385 | 0.21 | 0.0804 | 0.233
9 | PIP4P1 C87 (UniProt Q86T03) | -0.189 | -0.165 | -0.769 | 0.00811
10 | PLEKHM2 C735 (UniProt Q8IWE5) | -0.305 | -0.00149 | -0.0578 | -0.0151
11 | PLAA C193 (UniProt Q9Y263) | -0.0263 | -0.314 | 0.0928 | -0.275
12 | PNKP C353 (UniProt Q96T60) | -0.0441 | 0.0748 | -0.281 | 0.0766
13 | PIK3C2A C317 (UniProt O00443) | -0.0582 | -0.101 | 0.141 | -0.166
14 | POLR1B C689 (UniProt Q9H9Y6) | 0.0742 | 0.144 | 0.0519 | 0.0948
15 | PLXNB2 C1484 (UniProt O15031) | -0.0478 | 0.0854 | -0.4 | -0.0154
16 | PLCG1 C646 (UniProt P19174) | -0.101 | 0.00372 | -0.0655 | 0.101
17 | PLCG2 C624 (UniProt P16885) | -0.261 | -0.41 | 0.665 | -0.125
18 | PLXNA1 C1744 (UniProt Q9UIW2) | 0.114 | -0.183 | 0.177 | -0.00595
19 | PKN1 C662 (UniProt Q16512) | -0.327 | 0.117 | -0.0848 | 0.21
20 | POLA1 C141 (UniProt P09884) | 0.504 | -0.0854 | 1.1 | -0.0637
21 | PMM2 C136 (UniProt O15305) | -0.097 | 0.0249 | -0.0752 | 0.00449
22 | PLOD2 C494 (UniProt O00469) | -0.177 | 0.404 | -0.277 | 0.399
23 | PIAS2 C454 (UniProt O75928) | -0.118 | -0.0689 | -0.508 | -0.17
24 | PHF6 C28 (UniProt Q8IWS0) | -0.0505 | 0.108 | 0.0534 | 0.0623

Looked up above.
log2 mean competition ratio ([2]; 50 µM) with PIK3C2A C317 (UniProt O00443) reads 0.141
log2 mean competition ratio ([2]; 50 µM) with POLD3 C129 (UniProt Q15054) reads 0.0804
